The target in one test is StrepII-DDB1 (UniProt Q16531). Briefly: reconstitution and purification of a complex; E3 ligase complexes (WT: CUL4A, RBX1, MBP-DCAF10, StrepII-DDB1; RBX1^mut; -DCAF10; DCAF10^mut) purified and shown by TCE in-gel visualization; procedure in the Supplementary Methods.
A further test has as its target T1, Nt-free THOC7 peptide (UniProt Q6I9Y2).
T1 sequence (peptide, biotin at the C-terminus after the Lys3 spacer): GAVTDDEVIRKKK
The test can be described thus: pull-down; Nt-peptides bound to streptavidin beads incubated with purified GST-DCAF10 or GST alone; Western blots against GST, DCAF10 and streptavidin; n = 3; both purified. (In western blotting, separated proteins are transferred to a membrane and probed.)

Chains of the proteins cited; added tags and fusions are not shown. Lines headed by an entry give the natural chain unless they say otherwise; changes in a name come on top.
UniProt Q16531: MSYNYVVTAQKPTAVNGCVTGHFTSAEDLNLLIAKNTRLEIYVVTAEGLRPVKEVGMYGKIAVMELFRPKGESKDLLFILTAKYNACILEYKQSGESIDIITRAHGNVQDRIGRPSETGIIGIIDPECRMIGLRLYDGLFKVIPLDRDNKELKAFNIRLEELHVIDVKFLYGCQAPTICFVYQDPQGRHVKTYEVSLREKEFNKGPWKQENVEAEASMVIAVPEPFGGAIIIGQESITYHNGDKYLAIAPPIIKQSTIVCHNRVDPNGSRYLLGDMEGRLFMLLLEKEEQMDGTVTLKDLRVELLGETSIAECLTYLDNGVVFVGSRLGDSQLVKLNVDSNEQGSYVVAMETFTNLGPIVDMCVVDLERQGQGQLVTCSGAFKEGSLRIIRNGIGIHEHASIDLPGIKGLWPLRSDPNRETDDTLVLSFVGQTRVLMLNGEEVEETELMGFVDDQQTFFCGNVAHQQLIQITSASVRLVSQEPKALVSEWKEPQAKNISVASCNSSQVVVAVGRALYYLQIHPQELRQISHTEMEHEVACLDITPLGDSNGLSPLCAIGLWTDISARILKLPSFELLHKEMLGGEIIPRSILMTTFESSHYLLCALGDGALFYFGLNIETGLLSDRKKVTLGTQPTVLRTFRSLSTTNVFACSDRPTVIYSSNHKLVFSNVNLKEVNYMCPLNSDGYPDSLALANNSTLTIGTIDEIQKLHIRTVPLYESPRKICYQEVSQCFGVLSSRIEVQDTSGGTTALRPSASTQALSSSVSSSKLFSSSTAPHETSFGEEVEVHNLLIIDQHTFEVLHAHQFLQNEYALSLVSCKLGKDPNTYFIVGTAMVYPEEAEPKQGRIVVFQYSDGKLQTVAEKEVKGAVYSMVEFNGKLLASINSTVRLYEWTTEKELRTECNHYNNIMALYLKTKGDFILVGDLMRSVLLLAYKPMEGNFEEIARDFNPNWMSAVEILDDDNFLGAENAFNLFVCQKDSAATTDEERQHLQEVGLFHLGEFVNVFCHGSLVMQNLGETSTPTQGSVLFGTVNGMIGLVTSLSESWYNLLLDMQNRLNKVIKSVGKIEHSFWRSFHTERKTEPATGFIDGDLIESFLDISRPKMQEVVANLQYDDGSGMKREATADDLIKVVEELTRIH
UniProt Q6I9Y2: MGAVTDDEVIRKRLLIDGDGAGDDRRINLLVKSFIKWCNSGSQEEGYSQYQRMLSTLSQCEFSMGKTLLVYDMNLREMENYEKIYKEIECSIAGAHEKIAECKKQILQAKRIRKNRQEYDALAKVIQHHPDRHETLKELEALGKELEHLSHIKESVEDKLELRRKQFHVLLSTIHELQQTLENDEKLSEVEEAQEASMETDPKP

Test [1] has as its target T2, Nt-acetylated THOC7 peptide (UniProt Q6I9Y2).
T2 sequence (peptide, N-terminal acetyl on Gly2; biotin at the C-terminus after the Lys3 spacer): GAVTDDEVIRKKK
The test is described as above.

Results are given in words; binding and its absence hold for the method and conditions named. Some binding calls cover weakened binding; strength is not graded here. Sequences can lack the tags named with a protein.

B1: MBP-DCAF10 (protein, UniProt Q5QP82 1-559)
chain: MFPFGPHSPGGDGSAGAGAEEPTPHEGQAAATGPPSPLHPGADATHPPPPARSPRRPGAPSLSPAPRSGELGLPGAPESSTASAPGEPSPPSPPCRRPGPDCRAKSRGRHGLGAGLGGPGARLFGWLKERSLGRGLFVDPARDNFRTMTSLYGSIHPADSVYLSTRTHGAVFNLEYSPDGSVLTVACEQTEVLLFDPISSKHIKTLSEAHEDCVNNIRFLDNRLFATCSDDTTIALWDLRKLNTKVCTLHGHTSWVKNIEYDTNTRLLVTSGFDGNVIIWDTNRYTEDGCPHKKFFHTRFLMRMRLTPDCSKMLISTSSGYLLILHDLDLTKSLEVGSYPILRARRTTSSSDLTTSSSSSGPRVSGSPCHHSDSNSSEKHMSRASQREGVSPRNSLEVVTPEVLGESDHGNCITSLQLHPKGWATLLRCSSNSDDEECTCVYEFQEGAPVRPVSPRCSLRLTHYIEEANVGRGYIKELCFSPDGRMISSPHGYGIRLLGFDKQCSELVDCLPKEASPLRVIRSLYSHNDVVLTTKFSPTHCQIASGCLSGRVSLYQPKF
As for B1, in the test with StrepII-DDB1, the binding entry was “binds”.

B2: GST-DCAF10 (protein, UniProt Q5QP82 1-559)
chain: MFPFGPHSPGGDGSAGAGAEEPTPHEGQAAATGPPSPLHPGADATHPPPPARSPRRPGAPSLSPAPRSGELGLPGAPESSTASAPGEPSPPSPPCRRPGPDCRAKSRGRHGLGAGLGGPGARLFGWLKERSLGRGLFVDPARDNFRTMTSLYGSIHPADSVYLSTRTHGAVFNLEYSPDGSVLTVACEQTEVLLFDPISSKHIKTLSEAHEDCVNNIRFLDNRLFATCSDDTTIALWDLRKLNTKVCTLHGHTSWVKNIEYDTNTRLLVTSGFDGNVIIWDTNRYTEDGCPHKKFFHTRFLMRMRLTPDCSKMLISTSSGYLLILHDLDLTKSLEVGSYPILRARRTTSSSDLTTSSSSSGPRVSGSPCHHSDSNSSEKHMSRASQREGVSPRNSLEVVTPEVLGESDHGNCITSLQLHPKGWATLLRCSSNSDDEECTCVYEFQEGAPVRPVSPRCSLRLTHYIEEANVGRGYIKELCFSPDGRMISSPHGYGIRLLGFDKQCSELVDCLPKEASPLRVIRSLYSHNDVVLTTKFSPTHCQIASGCLSGRVSLYQPKF
With B2, the binding result (with Nt-free THOC7 peptide; in test [1]) was “no binding” throughout.

B3: DCAF10^mut (F172G, K257A, I475G) (protein, UniProt Q5QP82 1-559)
chain: MFPFGPHSPGGDGSAGAGAEEPTPHEGQAAATGPPSPLHPGADATHPPPPARSPRRPGAPSLSPAPRSGELGLPGAPESSTASAPGEPSPPSPPCRRPGPDCRAKSRGRHGLGAGLGGPGARLFGWLKERSLGRGLFVDPARDNFRTMTSLYGSIHPADSVYLSTRTHGAVGNLEYSPDGSVLTVACEQTEVLLFDPISSKHIKTLSEAHEDCVNNIRFLDNRLFATCSDDTTIALWDLRKLNTKVCTLHGHTSWVANIEYDTNTRLLVTSGFDGNVIIWDTNRYTEDGCPHKKFFHTRFLMRMRLTPDCSKMLISTSSGYLLILHDLDLTKSLEVGSYPILRARRTTSSSDLTTSSSSSGPRVSGSPCHHSDSNSSEKHMSRASQREGVSPRNSLEVVTPEVLGESDHGNCITSLQLHPKGWATLLRCSSNSDDEECTCVYEFQEGAPVRPVSPRCSLRLTHYIEEANVGRGYGKELCFSPDGRMISSPHGYGIRLLGFDKQCSELVDCLPKEASPLRVIRSLYSHNDVVLTTKFSPTHCQIASGCLSGRVSLYQPKF
As to B3, in the test with StrepII-DDB1, the binding result was “binds”.

For the origin of these results see paper PMC12775124, “CUL4A-DDB1-DCAF10 is an N-recognin for N-terminally acetylated Src kinases” (Nature Communications, 2026).
